Experimental data reported in the supplement of paper PMC8256030.
The other results are listed elsewhere or left out. This data set is noisy: repeats of one test often differ as much as different tests do.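 HEK293T cells were given each compound shortly before transfection with a reporter in which red mCherry is followed by the SARS-CoV-2 frameshift element and then GFP in the −1 frame, so GFP appears only after frameshifting.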

These compounds were tested on HEK293T (assay: percent viability (nuclei count) relative to control; higher = more viable cells). Conditions: 10 µM; 24 h.

Compound	percent viability
CN[C@@H](C)[C@H](O)c1ccccc1	145%
CN[C@@H](C)[C@@H](O)c1ccccc1 [pseudoephedrine]	245%
NC1=N[C@H](O)[C@H]2[C@H]3O[C@]4(O)O[C@@H]([C@@H](O)[C@@]2(N1)[C@@H]4O)[C@]3(O)CO [tetrodotoxin]	159%
Cc1cccc(C)c1NC1=NCCCS1 [xylazine]	294%
CC(N)C(O)c1ccccc1 (stereo unspecified) [Phenylpropanolamine]	158%
CC1OC(OC2C=C3CCC4C(CCC5(C)C(c6ccc(=O)oc6)CCC45O)C3(C)CC2)C(O)C(O)C1O (stereo unspecified)	3.42%
CC(C)[C@@]1(NC(=O)[C@@H]2C[C@@H]3c4cccc5[nH]cc(c45)C[C@H]3N(C)C2)O[C@@]2(O)[C@@H]3CCCN3C(=O)[C@H](Cc3ccccc3)N2C1=O [Dihydroergocristine]	309%
COc1ccc2c3c1O[C@H]1C(=O)CC[C@H]4[C@@H](C2)N(C)CC[C@]314 [hydrocodone]	250%
CNC(C)C(O)c1ccccc1 (stereo unspecified) [racephedrine]	205%
C[C@]12C/C(=C/O)C(=O)C[C@@H]1CC[C@@H]1[C@@H]2CC[C@@]2(C)[C@H]1CC[C@]2(C)O [oxymetholone]	137%
CC(C)C[C@@H](NC(=O)CNC(=O)[C@@H](NC=O)C(C)C)C(=O)N[C@@H](C)C(=O)N[C@@H](C(=O)N[C@H](C(=O)N[C@@H](C(=O)N[C@@H](Cc1c[nH]c2ccccc12)C(=O)N[C@H](CC(C)C)C(=O)N[C@@H](Cc1c[nH]c2ccccc12)C(=O)N[C@H](CC(C)C)C(=O)N[C@@H](Cc1c[nH]c2ccccc12)C(=O)N[C@H](CC(C)C)C(=O)N[C@@H](Cc1c[nH]c2ccccc12)C(=O)NCCO)C(C)C)C(C)C)C(C)C	3.32%
